Results are given in words; binding and its absence hold for the method and conditions named. Binding seen in cells or lysates may run through a third protein. Some entries that bind do so weakly or less than the wild type. For some assays here: Where a sequence is shown, tags or fusion partners need not be part of it.

Protein sequences, listed by entry. Tags and fused reporters are not part of them.
UniProt Q8N122: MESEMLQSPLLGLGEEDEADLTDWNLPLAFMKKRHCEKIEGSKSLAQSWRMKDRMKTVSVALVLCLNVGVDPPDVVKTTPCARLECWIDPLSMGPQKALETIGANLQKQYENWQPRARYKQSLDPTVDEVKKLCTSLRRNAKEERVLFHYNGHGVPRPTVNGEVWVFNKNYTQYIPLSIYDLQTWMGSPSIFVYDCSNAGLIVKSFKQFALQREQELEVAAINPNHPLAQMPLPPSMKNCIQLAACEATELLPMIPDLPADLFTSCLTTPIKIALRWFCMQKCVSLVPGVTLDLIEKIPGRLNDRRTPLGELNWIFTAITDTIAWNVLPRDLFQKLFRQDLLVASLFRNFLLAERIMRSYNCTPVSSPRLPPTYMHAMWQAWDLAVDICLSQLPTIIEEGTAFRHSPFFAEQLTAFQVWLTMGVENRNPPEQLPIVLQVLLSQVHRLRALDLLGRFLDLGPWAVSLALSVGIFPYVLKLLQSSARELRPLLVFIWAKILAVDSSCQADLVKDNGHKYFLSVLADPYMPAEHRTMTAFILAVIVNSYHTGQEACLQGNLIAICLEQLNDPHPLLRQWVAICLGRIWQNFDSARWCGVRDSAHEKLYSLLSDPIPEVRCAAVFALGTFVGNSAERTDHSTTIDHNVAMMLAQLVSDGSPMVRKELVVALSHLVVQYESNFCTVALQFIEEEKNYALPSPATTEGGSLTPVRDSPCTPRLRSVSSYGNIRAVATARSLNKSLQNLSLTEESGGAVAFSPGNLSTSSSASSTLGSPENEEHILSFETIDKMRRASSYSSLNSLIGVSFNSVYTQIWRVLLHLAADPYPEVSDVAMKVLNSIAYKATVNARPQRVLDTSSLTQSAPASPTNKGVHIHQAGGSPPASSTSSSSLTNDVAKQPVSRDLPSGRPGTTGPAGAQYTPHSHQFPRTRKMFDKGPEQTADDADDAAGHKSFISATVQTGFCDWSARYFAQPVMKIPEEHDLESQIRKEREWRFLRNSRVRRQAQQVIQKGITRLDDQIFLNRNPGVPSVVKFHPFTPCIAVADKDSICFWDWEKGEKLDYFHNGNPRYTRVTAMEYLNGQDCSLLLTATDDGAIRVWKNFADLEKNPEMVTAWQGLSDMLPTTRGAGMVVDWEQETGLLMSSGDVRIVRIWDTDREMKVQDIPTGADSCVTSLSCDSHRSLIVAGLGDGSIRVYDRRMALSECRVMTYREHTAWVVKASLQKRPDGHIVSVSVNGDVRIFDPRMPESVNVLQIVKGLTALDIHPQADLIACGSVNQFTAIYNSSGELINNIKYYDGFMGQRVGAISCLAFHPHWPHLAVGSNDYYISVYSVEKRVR

One assay has as its target HA-Raptor (UniProt Q8N122). As to the kind of experiment: co-IP; Flag-Bcl-3 and HA-Raptor co-transfected into HEK293T cells, lysed 48 h later in IP lysis buffer; anti-Flag or anti-HA agarose beads, 4°C overnight; beads washed four times; Western blot.
Assay [1] deals with endogenous Raptor (human (endogenous in 293T)) (UniProt Q8N122). The experiment in a line: co-IP; endogenous proteins in 293T lysate; anti-Bcl-3 or anti-Raptor antibody (5 µg), mouse purified IgG as negative control; Western blot. (In general: A western blot detects proteins with antibodies after separation by electrophoresis.)

B1: Flag-Bcl-3 (protein, UniProt P20749 1-454)
chain: MPRCPAGAMDEGPVDLRTRPKAAGLPGAALPLRKRPLRAPSPEPAAPRGAAGLVVPLDPLRGGCDLPAVPGPPHGLARPEALYYPGALLPLYPTRAMGSPFPLVNLPTPLYPMMCPMEHPLSADIAMATRADEDGDTPLHIAVVQGNLPAVHRLVNLFQQGGRELDIYNNLRQTPLHLAVITTLPSVVRLLVTAGASPMALDRHGQTAAHLACEHRSPTCLRALLDSAAPGTLDLEARNYDGLTALHVAVNTECQETVQLLLERGADIDAVDIKSGRSPLIHAVENNSLSMVQLLLQHGANVNAQMYSGSSALHSASGRGLLPLVRTLVRSGADSSLKNCHNDTPLMVARSRRVIDILRGKATRPASTSQPDPSPDRSANTSPESSSRLSSNGLLSASPSSSPSQSPPRDPPGFPMAPPNFFLPSPSPPAFLPFAGVLRGPGRPVPPSPAPGGS
In the case of B1, the binding result with HA-Raptor is “binds”.

B2: endogenous Bcl-3 (protein, UniProt P20749 1-454)
chain: MPRCPAGAMDEGPVDLRTRPKAAGLPGAALPLRKRPLRAPSPEPAAPRGAAGLVVPLDPLRGGCDLPAVPGPPHGLARPEALYYPGALLPLYPTRAMGSPFPLVNLPTPLYPMMCPMEHPLSADIAMATRADEDGDTPLHIAVVQGNLPAVHRLVNLFQQGGRELDIYNNLRQTPLHLAVITTLPSVVRLLVTAGASPMALDRHGQTAAHLACEHRSPTCLRALLDSAAPGTLDLEARNYDGLTALHVAVNTECQETVQLLLERGADIDAVDIKSGRSPLIHAVENNSLSMVQLLLQHGANVNAQMYSGSSALHSASGRGLLPLVRTLVRSGADSSLKNCHNDTPLMVARSRRVIDILRGKATRPASTSQPDPSPDRSANTSPESSSRLSSNGLLSASPSSSPSQSPPRDPPGFPMAPPNFFLPSPSPPAFLPFAGVLRGPGRPVPPSPAPGGS
Take B2: the binding result in assay [1] is “binds”.

(Values after publication PMC9500237.)
